{"source": "PubChem BioAssay AID651558", "about": "(National Center for Advancing Translational Sciences (NCATS), 2012)", "note": "About 480 (40%) of roughly 1,200 compounds were called active. The shares of active, inactive and inconclusive entries below differ from those in the screen. Calls come from the whole dose curve; as a rule, active = well fitted inhibition curve with a large enough effect; inconclusive = small, poorly fitted or top-dose-only effect; inactive = no such curve, though single readings can be large or run the other way. Where the call is inconclusive, the potency comes from a doubtful curve fit. Potency is the fitted concentration of half-maximal effect.", "data": [{"test": "qHTS Assay to Find Inhibitors of Chronic Active B-Cell Receptor Signaling: Hit Validation in Primary Screen; note: nearly all actives have a fitted effect of over 75% in size", "conditions": "ABC-DLBCL IkB-luc/CBR ratio luminescence, 4 h; series mostly up to 46.1 µM; activity change, negative = inhibition: at the top concentration", "source_text": "Diffuse large B-cell lymphoma (DLBCL) is the most common category of non-Hodgkin lymphoma, with ~20,000 new cases per year in the United States. DLBCL should be regarded as a collection of different neoplasms. Microarray gene expression analysis has defined two principal types of DLBCL, named for their similarity to normal B cell stages or activation states: a germinal center B-cell (GCB) type, and an activated B-cell (ABC) type. In ABC-DLBCL, a constitutive high-level activity of the NF-kappaB family of transcription factors has been observed (1) and NF-kappaB target genes are more highly expressed in ABC primary tumors than in GCB tumors. Functional studies have shown a constitutive high-level activity of the IkappaB (inhibitor of kappa-B) kinase (IKK) complex. […] Further analysis of DLBCL primary tumors for NF-kappaB target gene expression imply that although CARD11 is required for constitutive IKK activity in all ABC-DLBCL lines, mutations in CARD11 may be the root cause of IKK activation only in lines or tumors with such mutations. In other words, CARD11 mutations may explain NF-kappaB activation in only 10% of ABC-DLBCL cases. […] This process has been termed 'chronic active BCR signaling' (CABS). The goal of this screen is to find small-molecule inhibitors of the CABS pathway found in ABC-DLBCL lines using a cell-based assay that measures IkappaBalpa stability, which has already been extensively validated in the OCI-Ly3 line (PubChem AID:445; REF: 4). […] A cell-sensor assay for I-kappa-B-alpha stabilization has been developed. The assay uses green (CBG68) and red (CBR) emitting beetle luciferases [Chroma-GloTM developed by Promega Corp.] where the green luciferase is fused to IkappaBalpha and the red luciferase is present in its native state. Both luciferase genes are stably present in the TMD8 human ABC DLBCL cell line, but their expression is under the control of tetracycline-inducible promoters. Following the addition of doxycycline to induce expression of the luciferases, the green luminescence in control cultures rises only slowly because the CBG fusion partner IkappaBalpha is targeted by IKK activity for rapid degradation. In contrast, green luminescence rises rapidly in the presence of proteasome inhibitors or IKK inhibitors. The rise in red luminescence of CBR is not affected by proteasome or IKK inhibitors, and serves as normalization for cell number and nonspecific effects. Compounds were screened as a concentration-titration series that ranged from 46 uM to 3 nM. NIH Molecular Libraries Probe Production Network [MLPCN] NIH Chemical Genomics Center [NCGC] MLPCN Grant: R03 DA031086 PI Name: Dr. R. Eric Davis\nCells were seeded in 1536-well plates at 5000 cells/4uL in IMDM medium containing 0.5% FBS, w/o phenol red, 1% penicillin/streptomycin. Then, 23 nL of compounds or DMSO were delivered to each well using a pin tool. One uL 20ng/ml doxycycline was then dispensed into white solid 1536-well plates and the plates were incubated at 37C/5% C02 in a cell incubator for 4 hrs. Then 4 uL luminescent substrate mix (in-house prepared: 150 mM Tris-Cl, pH 7.6, 3 mM MgCl2, 1% Triton X-100, 5 mM DTT, 0.2 mM CoA, 0.15 mM ATP, 5 mM D-luciferin, final concentrations) was added to each well. The plate was incubated at r.t. for 10-15 min. The plates were measured on a ViewLux plate reader for green luminescence (540/20 nm filter) and red luminescence (618/8 nm filter). The green and red luminescent signals were corrected for red and green luminescence filter overlap using previously determined filter calibration constants (determined using the procedure outlined in the Promega Technical Manual; REF 4). The %Activity was determined from the ratio of corrected green/red luminescent values. MG132 were used as control. Green luminescent and ratio %Activity was determined by normalizing to the difference in signal between basal cells (0% Activity) and cells incubated with 10 uM of the proteasome inhibitor MG-132 (100% Activity). […]", "values": [{"smiles": "C/C(=N\\N1CCCCC1)c1c(O)[nH]c(=O)[nH]c1=O", "activity change, negative = inhibition": "inactive: -16.6%"}, {"smiles": "CCNC(=O)[C@H]1O[C@@H](n2cnc3c(N)ncnc32)[C@H](O)[C@@H]1O", "Potency": "active: 0.13 µM"}, {"smiles": "CCCC[C@@H](C)C[C@@H](C)C(=O)N(C)[C@@H](CC(C)C)C(=O)N[C@H](C(=O)N(C)[C@H](C(=O)N1C[C@@H](O)C[C@H]1C(=O)N1C(=O)C=C[C@@H]1C)C(C)C)C(C)OC(C)=O", "note": "(stereo not given in full)", "Potency": "inconclusive: 7.31 µM [inhibitor, partial curve]"}, {"smiles": "COc1ccc(Cc2nccc3cc(OC)c(OC)cc23)cc1OC", "Potency": "inconclusive: 13 µM [inhibitor, partial curve]"}, {"smiles": "CC[C@]12CC[C@H](O)CC1=CCC1C2CC[C@]2(C)C(=O)CCC12", "note": "(stereo not given in full)", "activity change, negative = inhibition": "inactive: -9.41%"}, {"smiles": "CC(C)CCCn1c(O)c(/C=C2/C=CC=N2)c(=O)[nH]c1=O", "Potency": "inconclusive: 18.4 µM [inhibitor, single point]"}, {"smiles": "COc1ccc(CCNc2oc(-c3ccc(OC)c(OC)c3)nc2P(=O)(OC)OC)cc1OC", "Potency": "inconclusive: 10.3 µM [inhibitor, partial curve]"}, {"smiles": "COc1cc2c3cc1Oc1cc(ccc1O)C[C@@H]1c4c(cc(OC)c(O)c4Oc4ccc(cc4)C[C@H]3N(C)CC2)CCN1C", "Potency": "inconclusive: 23.1 µM [inhibitor, partial curve]"}, {"smiles": "COc1cc(/C=C/[N+](=O)[O-])ccc1O", "Potency": "inconclusive: 18.4 µM [inhibitor, partial curve]"}, {"smiles": "O=C(/C=C/c1cccs1)c1cc(Cl)ccc1OC(=O)N1CCOCC1", "Potency": "inconclusive: 18.4 µM [inhibitor, partial curve]"}, {"smiles": "O=C(NC1CCCCC1)Oc1cc2oc(=O)sc2cc1Cl", "Potency": "inconclusive: 9.2 µM [inhibitor, partial curve]"}, {"smiles": "CN1C(=O)CN=C(c2ccc(Cl)cc2)c2cc(Cl)ccc21", "Potency": "inconclusive: 14.6 µM [inhibitor, partial curve]"}, {"smiles": "Cc1cc(C)c(C(=O)CN2CCOCC2)c(C)c1", "activity change, negative = inhibition": "inactive: -10.1%"}, {"smiles": "COc1cc2c(c(OC)c1OC)-c1ccc(O)c(=O)cc1C(NC(C)=O)CC2", "note": "(stereo not given)", "Potency": "active: 0.231 µM"}, {"smiles": "CN1CCc2cccc3c2[C@H]1Cc1ccc(O)c(O)c1-3", "Potency": "inconclusive: 23.1 µM [inhibitor, single point]"}]}]}
